Measurements: the supplement of paper PMC6411743
± gives the standard deviation of the averaged measurements. The entries are a selection whose mix differs from that of the whole data set.

By UniProt entry, the sequences of proteins in these tests, tags left out. Where a name states a change or a piece, a line headed by the entry shows the natural chain unless it says otherwise.
UniProt Q9UEU0: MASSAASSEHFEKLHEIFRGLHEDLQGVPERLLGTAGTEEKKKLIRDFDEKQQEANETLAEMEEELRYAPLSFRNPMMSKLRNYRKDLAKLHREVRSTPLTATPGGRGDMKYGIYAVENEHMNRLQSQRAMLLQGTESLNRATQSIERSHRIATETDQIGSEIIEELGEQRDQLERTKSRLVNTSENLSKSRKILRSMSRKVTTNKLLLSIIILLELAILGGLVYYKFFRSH
UniProt Q9ULC3: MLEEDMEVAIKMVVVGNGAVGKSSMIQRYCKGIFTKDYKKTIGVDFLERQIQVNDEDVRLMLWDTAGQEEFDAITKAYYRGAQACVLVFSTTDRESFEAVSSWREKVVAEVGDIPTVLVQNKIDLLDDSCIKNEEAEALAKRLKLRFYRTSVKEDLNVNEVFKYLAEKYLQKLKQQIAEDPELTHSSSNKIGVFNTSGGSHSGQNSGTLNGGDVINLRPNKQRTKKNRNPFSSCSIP
UniProt Q9UJW0, whole entry: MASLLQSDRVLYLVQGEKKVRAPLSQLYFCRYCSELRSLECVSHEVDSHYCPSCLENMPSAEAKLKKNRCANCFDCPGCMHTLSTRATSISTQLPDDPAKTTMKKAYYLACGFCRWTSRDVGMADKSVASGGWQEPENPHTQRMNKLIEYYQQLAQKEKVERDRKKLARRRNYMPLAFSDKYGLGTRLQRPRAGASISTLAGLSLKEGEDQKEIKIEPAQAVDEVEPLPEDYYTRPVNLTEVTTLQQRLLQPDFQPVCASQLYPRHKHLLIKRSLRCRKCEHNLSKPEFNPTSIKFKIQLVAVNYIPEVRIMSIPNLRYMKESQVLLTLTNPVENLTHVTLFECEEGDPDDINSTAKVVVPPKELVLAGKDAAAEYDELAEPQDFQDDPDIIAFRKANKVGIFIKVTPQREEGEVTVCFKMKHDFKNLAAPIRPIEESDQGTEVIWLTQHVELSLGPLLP
UniProt Q9UFN0: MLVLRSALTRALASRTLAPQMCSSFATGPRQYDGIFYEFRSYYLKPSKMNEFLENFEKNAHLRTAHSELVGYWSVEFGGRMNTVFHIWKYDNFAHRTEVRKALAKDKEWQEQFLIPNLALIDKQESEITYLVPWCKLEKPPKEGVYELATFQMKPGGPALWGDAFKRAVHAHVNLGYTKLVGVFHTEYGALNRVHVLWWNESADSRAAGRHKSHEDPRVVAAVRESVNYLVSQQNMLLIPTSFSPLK
UniProt Q9UL03, whole entry: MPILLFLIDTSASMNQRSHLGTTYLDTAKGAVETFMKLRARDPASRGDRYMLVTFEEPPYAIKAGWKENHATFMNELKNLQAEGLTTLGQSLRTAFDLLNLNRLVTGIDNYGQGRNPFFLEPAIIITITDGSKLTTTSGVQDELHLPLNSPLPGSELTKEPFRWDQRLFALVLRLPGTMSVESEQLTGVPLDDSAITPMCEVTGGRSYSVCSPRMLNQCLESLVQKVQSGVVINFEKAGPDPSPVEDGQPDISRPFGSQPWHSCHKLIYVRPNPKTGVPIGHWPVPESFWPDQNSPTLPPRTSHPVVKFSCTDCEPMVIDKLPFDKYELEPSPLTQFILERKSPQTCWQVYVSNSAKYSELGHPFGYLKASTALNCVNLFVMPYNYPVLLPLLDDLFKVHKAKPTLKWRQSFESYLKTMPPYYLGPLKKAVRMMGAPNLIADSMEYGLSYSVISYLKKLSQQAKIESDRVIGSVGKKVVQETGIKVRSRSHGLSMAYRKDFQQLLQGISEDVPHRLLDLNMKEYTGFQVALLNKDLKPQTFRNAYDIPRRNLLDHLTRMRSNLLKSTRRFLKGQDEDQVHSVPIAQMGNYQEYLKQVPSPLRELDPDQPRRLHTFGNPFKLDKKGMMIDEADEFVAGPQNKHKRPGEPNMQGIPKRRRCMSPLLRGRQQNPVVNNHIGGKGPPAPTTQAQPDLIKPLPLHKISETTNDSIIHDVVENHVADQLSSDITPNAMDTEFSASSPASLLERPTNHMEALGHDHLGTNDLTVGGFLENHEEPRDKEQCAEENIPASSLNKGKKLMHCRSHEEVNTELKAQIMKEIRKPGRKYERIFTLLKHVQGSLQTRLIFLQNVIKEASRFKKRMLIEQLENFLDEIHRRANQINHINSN
UniProt Q9UHI6: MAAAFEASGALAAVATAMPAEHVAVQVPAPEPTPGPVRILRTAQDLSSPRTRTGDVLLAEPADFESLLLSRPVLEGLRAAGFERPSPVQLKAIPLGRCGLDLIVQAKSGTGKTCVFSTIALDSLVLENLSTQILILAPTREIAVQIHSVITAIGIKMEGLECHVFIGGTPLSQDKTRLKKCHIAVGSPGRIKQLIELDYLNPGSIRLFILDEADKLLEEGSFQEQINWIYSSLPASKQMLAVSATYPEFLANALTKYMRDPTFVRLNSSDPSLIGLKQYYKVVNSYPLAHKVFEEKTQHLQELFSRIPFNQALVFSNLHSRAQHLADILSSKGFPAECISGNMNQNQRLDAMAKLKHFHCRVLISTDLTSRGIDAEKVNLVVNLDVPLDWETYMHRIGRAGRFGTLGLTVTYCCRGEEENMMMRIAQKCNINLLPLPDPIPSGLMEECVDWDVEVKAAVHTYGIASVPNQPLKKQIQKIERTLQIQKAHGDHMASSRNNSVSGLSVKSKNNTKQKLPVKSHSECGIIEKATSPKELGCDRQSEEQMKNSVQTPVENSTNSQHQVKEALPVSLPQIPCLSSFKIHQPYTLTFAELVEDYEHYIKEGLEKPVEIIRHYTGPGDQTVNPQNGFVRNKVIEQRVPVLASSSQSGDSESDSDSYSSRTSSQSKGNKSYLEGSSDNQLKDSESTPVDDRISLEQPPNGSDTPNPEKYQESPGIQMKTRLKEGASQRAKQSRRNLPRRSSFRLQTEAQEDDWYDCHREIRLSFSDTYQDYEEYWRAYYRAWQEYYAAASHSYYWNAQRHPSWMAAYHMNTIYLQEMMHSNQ
UniProt Q9ULX6: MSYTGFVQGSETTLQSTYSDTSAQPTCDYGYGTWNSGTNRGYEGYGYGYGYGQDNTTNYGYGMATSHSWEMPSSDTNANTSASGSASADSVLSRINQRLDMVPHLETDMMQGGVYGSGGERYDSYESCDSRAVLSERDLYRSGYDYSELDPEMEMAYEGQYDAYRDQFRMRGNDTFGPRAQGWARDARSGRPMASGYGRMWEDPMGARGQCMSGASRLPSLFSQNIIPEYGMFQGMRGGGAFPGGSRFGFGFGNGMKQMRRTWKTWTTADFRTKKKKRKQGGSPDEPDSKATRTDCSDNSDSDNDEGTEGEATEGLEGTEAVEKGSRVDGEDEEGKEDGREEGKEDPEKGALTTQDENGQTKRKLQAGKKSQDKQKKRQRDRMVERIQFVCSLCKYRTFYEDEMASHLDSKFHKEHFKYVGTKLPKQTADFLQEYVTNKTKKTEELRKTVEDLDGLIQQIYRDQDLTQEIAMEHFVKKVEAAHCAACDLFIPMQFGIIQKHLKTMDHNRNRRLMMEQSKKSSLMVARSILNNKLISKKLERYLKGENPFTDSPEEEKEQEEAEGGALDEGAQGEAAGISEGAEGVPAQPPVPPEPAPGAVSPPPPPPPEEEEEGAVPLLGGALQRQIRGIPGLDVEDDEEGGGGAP
UniProt Q9P2A4: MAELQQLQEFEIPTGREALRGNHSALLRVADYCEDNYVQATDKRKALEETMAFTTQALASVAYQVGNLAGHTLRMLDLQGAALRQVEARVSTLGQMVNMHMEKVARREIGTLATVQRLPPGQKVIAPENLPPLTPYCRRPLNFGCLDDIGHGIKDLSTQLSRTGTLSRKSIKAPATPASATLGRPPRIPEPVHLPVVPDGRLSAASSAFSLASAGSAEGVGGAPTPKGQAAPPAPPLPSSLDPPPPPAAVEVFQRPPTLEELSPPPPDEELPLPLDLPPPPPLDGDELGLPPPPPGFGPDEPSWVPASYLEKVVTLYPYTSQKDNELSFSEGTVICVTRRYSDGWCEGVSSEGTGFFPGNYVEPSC
UniProt Q9UIW2: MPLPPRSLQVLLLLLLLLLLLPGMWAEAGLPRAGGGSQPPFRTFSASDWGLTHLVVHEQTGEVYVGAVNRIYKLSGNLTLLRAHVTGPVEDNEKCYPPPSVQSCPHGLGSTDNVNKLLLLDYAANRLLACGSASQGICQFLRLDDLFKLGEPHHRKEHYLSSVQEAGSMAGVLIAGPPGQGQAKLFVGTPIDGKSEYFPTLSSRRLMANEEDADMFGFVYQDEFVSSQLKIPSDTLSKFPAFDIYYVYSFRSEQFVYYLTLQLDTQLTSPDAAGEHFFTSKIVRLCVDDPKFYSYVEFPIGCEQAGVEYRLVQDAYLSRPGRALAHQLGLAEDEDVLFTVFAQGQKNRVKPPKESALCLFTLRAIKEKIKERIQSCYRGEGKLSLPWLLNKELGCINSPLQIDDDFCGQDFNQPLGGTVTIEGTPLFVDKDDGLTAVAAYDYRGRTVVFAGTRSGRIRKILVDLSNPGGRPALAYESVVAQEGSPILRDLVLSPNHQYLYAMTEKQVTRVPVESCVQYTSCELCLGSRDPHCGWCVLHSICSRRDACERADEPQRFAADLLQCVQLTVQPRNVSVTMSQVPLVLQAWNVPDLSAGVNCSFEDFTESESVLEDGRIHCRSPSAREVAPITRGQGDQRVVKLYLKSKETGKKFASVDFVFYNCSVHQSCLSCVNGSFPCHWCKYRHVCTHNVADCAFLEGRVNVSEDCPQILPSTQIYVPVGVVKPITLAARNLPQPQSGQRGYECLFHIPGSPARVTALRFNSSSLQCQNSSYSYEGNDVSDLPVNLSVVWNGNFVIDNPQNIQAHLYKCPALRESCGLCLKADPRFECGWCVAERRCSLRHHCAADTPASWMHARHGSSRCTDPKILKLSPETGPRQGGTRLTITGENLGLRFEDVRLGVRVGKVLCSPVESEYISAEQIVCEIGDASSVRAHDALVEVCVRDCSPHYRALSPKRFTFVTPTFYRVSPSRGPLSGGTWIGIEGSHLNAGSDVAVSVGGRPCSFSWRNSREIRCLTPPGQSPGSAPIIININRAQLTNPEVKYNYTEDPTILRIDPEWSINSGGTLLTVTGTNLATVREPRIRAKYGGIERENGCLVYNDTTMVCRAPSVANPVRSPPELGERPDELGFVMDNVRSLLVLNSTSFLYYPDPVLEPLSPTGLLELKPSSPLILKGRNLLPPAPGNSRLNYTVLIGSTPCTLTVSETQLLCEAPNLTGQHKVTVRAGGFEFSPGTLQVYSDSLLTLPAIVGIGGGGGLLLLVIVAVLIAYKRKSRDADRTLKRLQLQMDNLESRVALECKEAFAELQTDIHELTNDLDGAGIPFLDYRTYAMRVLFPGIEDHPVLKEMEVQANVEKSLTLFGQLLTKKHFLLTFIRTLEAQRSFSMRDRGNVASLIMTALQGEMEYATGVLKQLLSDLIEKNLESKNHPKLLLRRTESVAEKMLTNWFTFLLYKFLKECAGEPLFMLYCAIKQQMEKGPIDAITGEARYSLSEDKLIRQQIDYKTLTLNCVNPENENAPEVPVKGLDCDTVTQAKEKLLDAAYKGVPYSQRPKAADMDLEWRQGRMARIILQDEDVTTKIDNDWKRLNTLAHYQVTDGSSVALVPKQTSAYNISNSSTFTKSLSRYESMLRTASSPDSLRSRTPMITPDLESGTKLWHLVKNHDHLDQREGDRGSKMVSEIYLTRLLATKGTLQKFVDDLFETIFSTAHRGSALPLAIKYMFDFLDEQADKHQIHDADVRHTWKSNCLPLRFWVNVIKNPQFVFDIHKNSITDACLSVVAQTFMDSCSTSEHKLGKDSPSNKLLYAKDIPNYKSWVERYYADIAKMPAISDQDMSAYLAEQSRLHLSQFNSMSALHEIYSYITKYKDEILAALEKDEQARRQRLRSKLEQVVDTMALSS
UniProt Q9UKV5, whole entry: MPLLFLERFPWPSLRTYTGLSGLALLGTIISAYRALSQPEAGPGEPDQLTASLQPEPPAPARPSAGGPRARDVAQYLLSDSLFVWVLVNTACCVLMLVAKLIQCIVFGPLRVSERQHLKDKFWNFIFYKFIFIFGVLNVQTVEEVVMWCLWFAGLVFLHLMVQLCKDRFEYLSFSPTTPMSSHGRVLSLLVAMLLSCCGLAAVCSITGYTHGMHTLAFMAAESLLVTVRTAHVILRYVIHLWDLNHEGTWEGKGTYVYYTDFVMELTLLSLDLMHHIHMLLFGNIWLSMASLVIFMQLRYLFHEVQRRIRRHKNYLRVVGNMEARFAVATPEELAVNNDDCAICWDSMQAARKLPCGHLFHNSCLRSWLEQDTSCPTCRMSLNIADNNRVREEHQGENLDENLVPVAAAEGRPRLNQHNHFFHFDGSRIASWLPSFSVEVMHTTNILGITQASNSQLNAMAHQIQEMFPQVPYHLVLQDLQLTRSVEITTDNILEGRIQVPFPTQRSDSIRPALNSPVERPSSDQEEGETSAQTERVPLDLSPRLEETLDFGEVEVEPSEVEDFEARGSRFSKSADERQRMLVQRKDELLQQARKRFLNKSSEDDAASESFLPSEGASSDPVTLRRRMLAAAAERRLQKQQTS
UniProt Q9UI09, whole entry: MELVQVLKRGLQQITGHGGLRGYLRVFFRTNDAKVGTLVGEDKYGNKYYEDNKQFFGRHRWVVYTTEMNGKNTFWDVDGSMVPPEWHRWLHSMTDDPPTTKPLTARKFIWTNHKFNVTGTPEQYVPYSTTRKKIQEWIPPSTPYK

Compound: Nc1ncnc2c1ncn2[C@@H]1O[C@H](COP(=O)(O)OP(=O)(O)OP(=O)(O)O)[C@@H](O)[C@H]1O [adenosine triphosphate]
Experiment: NP40-soluble protein abundance relative to vehicle (solubility fold change) (ratio); higher = more soluble protein in presence of ATP
In short: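 Each value is a fold change relative to the detergent-processed vehicle, calculated per replicate from vsn-normalised intensities. Jurkat crude lysate received eight concentrations (0.1 to 10 mM) for 10 min at room temperature and 3 min at 37 °C, then was solubilised in 0.8% NP40 with benzonase (60 min, 4 °C). The ultracentrifuged supernatant was TMT-labelled and run by LC-MS/MS in three independent experiments.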

| Target | NP40-soluble protein abundance (concentration: 1mM) | NP40-soluble protein abundance (concentration: 2mM) | NP40-soluble protein abundance (concentration: 4mM) | NP40-soluble protein abundance (concentration: 6mM) | NP40-soluble protein abundance (concentration: 8mM) | NP40-soluble protein abundance (concentration: 10mM) |
| --- | --- | --- | --- | --- | --- | --- |
| VTI1B (UniProt Q9UEU0) | 1.07 ± 0.052 | 1.02 ± 0.021 | 1.04 ± 0.034 | 1.08 ± 0.064 | 1.05 ± 0.021 | 0.988 ± 0.082 |
| UniProt Q9UNM6 and related entries | 0.946 ± 0.062 | 0.879 ± 0.029 | 0.845 ± 0.017 | 0.842 ± 0.025 | 0.883 ± 0.0098 | 0.845 ± 0.044 |
| RUVBL1 (UniProt Q9Y265) | 1.13 ± 0.023 | 1.09 ± 0.02 | 1.08 ± 0.02 | 1.1 ± 0.038 | 1.16 ± 0.054 | 1.15 ± 0.073 |
| RAB23 (UniProt Q9ULC3) | 0.937 ± 0.069 | 0.99 ± 0.051 | 0.954 ± 0.058 | 0.947 ± 0.094 | 0.965 ± 0.057 | 0.956 ± 0.068 |
| DCTN4 (UniProt Q9UJW0) | 1.01 ± 0.038 | 0.984 ± 0.017 | 0.976 ± 0.012 | 0.96 ± 0.065 | 0.988 ± 0.063 | 0.979 ± 0.058 |
| NIPSNAP3A (UniProt Q9UFN0) | 1.05 ± 0.17 | 1.03 ± 0.13 | 1.04 ± 0.13 | 0.938 ± 0.17 | 1.06 ± 0.099 | 1.02 ± 0.1 |
| METTL1 (UniProt Q9UBP6) | 0.978 ± 0.091 | 1.04 ± 0.056 | 0.988 ± 0.078 | 0.963 ± 0.14 | 0.975 ± 0.17 | 1.01 ± 0.13 |
| UniProt Q9UII2 | 1.01 ± 0.27 | 0.993 ± 0.21 | 0.909 ± 0.13 | 0.96 ± 0.14 | 0.889 ± 0.025 | 0.827 ± 0.14 |
| UniProt Q9UL03 and related entries | 1.09 ± 0.056 | 1.1 ± 0.1 | 1.14 ± 0.096 | 1.13 ± 0.18 | 1.25 ± 0.16 | 1.2 ± 0.082 |
| UniProt Q9UBH6 and related entries | 0.987 ± 0.028 | 0.98 ± 0.14 | 0.952 ± 0.12 | 0.933 ± 0.15 | 0.995 ± 0.14 | 1.01 ± 0.16 |
| SWAP70 (UniProt Q9UH65) | 0.956 ± 0.027 | 0.9447 ± 0.0087 | 0.93 ± 0.01 | 0.972 ± 0.014 | 0.917 ± 0.015 | 0.917 ± 0.032 |
| DDX20 (UniProt Q9UHI6) | 0.969 ± 0.046 | 0.899 ± 0.058 | 0.915 ± 0.085 | 0.942 ± 0.21 | 0.956 ± 0.14 | 0.979 ± 0.12 |
| UniProt Q9UQC2 and related entries | 0.932 ± 0.014 | 0.92 ± 0.064 | 0.979 ± 0.061 | 0.974 ± 0.082 | 0.877 ± 0.04 | 0.891 ± 0.029 |
| UniProt Q9UJX6 and related entries | 1.04 ± 0.12 | 0.954 ± 0.025 | 0.979 ± 0.045 | 0.899 ± 0.038 | 1.05 ± 0.019 | 0.998 ± 0.06 |
| EPDR1 (UniProt Q9UM22) | 1.01 ± 0.041 | 1 ± 0.03 | 0.938 ± 0.031 | 0.987 ± 0.053 | 0.927 ± 0.019 | 0.936 ± 0.019 |
| SCML2 (UniProt Q9UQR0) | 1.13 ± 0.043 | 1.16 ± 0.024 | 1.21 ± 0.041 | 1.24 ± 0.036 | 1.21 ± 0.016 | 1.23 ± 0.017 |
| UniProt Q9ULX6 and related entries | 0.947 ± 0.021 | 0.91 ± 0.034 | 0.9 ± 0.041 | 0.949 ± 0.12 | 0.928 ± 0.066 | 0.933 ± 0.027 |

Single records, as listed above. Values in the order: NP40-soluble protein abundance (concentration: 1mM)	NP40-soluble protein abundance (concentration: 2mM)	NP40-soluble protein abundance (concentration: 4mM)	NP40-soluble protein abundance (concentration: 6mM)	NP40-soluble protein abundance (concentration: 8mM)	NP40-soluble protein abundance (concentration: 10mM)
DCTN4 (UniProt Q9UJW0) in the list: 1.01 ± 0.038	0.984 ± 0.017	0.976 ± 0.012	0.96 ± 0.065	0.988 ± 0.063	0.979 ± 0.058
NIPSNAP3A (UniProt Q9UFN0) in the list: 1.05 ± 0.17	1.03 ± 0.13	1.04 ± 0.13	0.938 ± 0.17	1.06 ± 0.099	1.02 ± 0.1

Next part.

| Target | NP40-soluble protein abundance (concentration: 1mM) | NP40-soluble protein abundance (concentration: 2mM) | NP40-soluble protein abundance (concentration: 4mM) | NP40-soluble protein abundance (concentration: 6mM) | NP40-soluble protein abundance (concentration: 8mM) | NP40-soluble protein abundance (concentration: 10mM) |
| --- | --- | --- | --- | --- | --- | --- |
| UniProt Q9UJX5 and related entries | 0.995 ± 0.092 | 1 ± 0.04 | 0.987 ± 0.015 | 0.95 ± 0.03 | 0.977 ± 0.043 | 0.989 ± 0.032 |
| MINPP1 (UniProt Q9UNW1) | 0.96769 ± 0.00085 | 0.979 ± 0.032 | 0.94 ± 0.02 | 0.966 ± 0.04 | 0.9225 ± 0.0078 | 0.933 ± 0.023 |
| VPS4A (UniProt Q9UN37) | 1.17 ± 0.03 | 1.19 ± 0.04 | 1.17 ± 0.017 | 1.26 ± 0.013 | 1.17 ± 0.054 | 1.17 ± 0.073 |
| MRPS33 (UniProt Q9Y291) | 1.02 ± 0.19 | 0.981 ± 0.18 | 0.883 ± 0.16 | 0.915 ± 0.37 | 0.847 ± 0.24 | 0.792 ± 0.16 |
| UniProt Q9P2A4 and related entries | 1.05 ± 0.053 | 1.02 ± 0.052 | 1 ± 0.025 | 1.03 ± 0.027 | 1.022 ± 0.0094 | 1.02 ± 0.018 |
| PLXNA1 (UniProt Q9UIW2) | 1.01 ± 0.035 | 1.03 ± 0.07 | 1.022 ± 0.0098 | 1 ± 0.075 | 0.987 ± 0.056 | 0.998 ± 0.037 |
| AMFR (UniProt Q9UKV5) | 1.02 ± 0.035 | 0.982 ± 0.041 | 0.998 ± 0.038 | 0.991 ± 0.065 | 0.958 ± 0.043 | 0.98 ± 0.052 |
| UniProt Q9UJ68 and related entries | 0.993 ± 0.11 | 0.99 ± 0.11 | 0.96 ± 0.17 | 0.989 ± 0.13 | 0.92 ± 0.072 | 0.96 ± 0.099 |
| ZNHIT2 (UniProt Q9UHR6) | 0.909 ± 0.027 | 0.965 ± 0.12 | 0.944 ± 0.12 | 0.971 ± 0.048 | 0.983 ± 0.086 | 0.941 ± 0.035 |
| AFF4 (UniProt Q9UHB7) | 1.1 ± 0.046 | 1.15 ± 0.015 | 1.18 ± 0.029 | 1.21 ± 0.031 | 1.19 ± 0.016 | 1.24 ± 0.042 |
| UniProt Q9UEW8 and related entries | 1.01 ± 0.055 | 0.982 ± 0.065 | 0.938 ± 0.064 | 0.949 ± 0.016 | 0.941 ± 0.027 | 0.931 ± 0.028 |
| NDUFA12 (UniProt Q9UI09) | 0.954 ± 0.023 | 0.9719 ± 0.0096 | 0.916 ± 0.067 | 0.933 ± 0.087 | 0.961 ± 0.079 | 0.954 ± 0.054 |
| UniProt Q9UBU8-2 | 0.993 ± 0.054 | 1.02 ± 0.019 | 1.03 ± 0.022 | 1.07 ± 0.03 | 1.04 ± 0.03 | 1.04 ± 0.04 |
| UniProt Q9UK41 and related entries | 0.987 ± 0.032 | 0.946 ± 0.0059 | 0.954 ± 0.0084 | 0.958 ± 0.0072 | 1 ± 0.043 | 0.865 ± 0.09 |
| UniProt Q9UMS0 and related entries | 0.951 ± 0.031 | 0.97 ± 0.014 | 0.947 ± 0.015 | 0.983 ± 0.04 | 0.919 ± 0.048 | 0.875 ± 0.067 |
| UniProt Q9UL18 and related entries | 1.01 ± 0.14 | 1.07 ± 0.095 | 1.08 ± 0.11 | 1.08 ± 0.063 | 1.07 ± 0.093 | 1.05 ± 0.061 |
